In US20030129658A1 one finds binding data, which are given here for one substance.

These are yes or no findings as the source states them, for the method shown. Binding can be weak; no strength is given.

The target in the test is T1, α2-macroglobulin (UniProt Q7SIH1).
T1 sequence (looked up): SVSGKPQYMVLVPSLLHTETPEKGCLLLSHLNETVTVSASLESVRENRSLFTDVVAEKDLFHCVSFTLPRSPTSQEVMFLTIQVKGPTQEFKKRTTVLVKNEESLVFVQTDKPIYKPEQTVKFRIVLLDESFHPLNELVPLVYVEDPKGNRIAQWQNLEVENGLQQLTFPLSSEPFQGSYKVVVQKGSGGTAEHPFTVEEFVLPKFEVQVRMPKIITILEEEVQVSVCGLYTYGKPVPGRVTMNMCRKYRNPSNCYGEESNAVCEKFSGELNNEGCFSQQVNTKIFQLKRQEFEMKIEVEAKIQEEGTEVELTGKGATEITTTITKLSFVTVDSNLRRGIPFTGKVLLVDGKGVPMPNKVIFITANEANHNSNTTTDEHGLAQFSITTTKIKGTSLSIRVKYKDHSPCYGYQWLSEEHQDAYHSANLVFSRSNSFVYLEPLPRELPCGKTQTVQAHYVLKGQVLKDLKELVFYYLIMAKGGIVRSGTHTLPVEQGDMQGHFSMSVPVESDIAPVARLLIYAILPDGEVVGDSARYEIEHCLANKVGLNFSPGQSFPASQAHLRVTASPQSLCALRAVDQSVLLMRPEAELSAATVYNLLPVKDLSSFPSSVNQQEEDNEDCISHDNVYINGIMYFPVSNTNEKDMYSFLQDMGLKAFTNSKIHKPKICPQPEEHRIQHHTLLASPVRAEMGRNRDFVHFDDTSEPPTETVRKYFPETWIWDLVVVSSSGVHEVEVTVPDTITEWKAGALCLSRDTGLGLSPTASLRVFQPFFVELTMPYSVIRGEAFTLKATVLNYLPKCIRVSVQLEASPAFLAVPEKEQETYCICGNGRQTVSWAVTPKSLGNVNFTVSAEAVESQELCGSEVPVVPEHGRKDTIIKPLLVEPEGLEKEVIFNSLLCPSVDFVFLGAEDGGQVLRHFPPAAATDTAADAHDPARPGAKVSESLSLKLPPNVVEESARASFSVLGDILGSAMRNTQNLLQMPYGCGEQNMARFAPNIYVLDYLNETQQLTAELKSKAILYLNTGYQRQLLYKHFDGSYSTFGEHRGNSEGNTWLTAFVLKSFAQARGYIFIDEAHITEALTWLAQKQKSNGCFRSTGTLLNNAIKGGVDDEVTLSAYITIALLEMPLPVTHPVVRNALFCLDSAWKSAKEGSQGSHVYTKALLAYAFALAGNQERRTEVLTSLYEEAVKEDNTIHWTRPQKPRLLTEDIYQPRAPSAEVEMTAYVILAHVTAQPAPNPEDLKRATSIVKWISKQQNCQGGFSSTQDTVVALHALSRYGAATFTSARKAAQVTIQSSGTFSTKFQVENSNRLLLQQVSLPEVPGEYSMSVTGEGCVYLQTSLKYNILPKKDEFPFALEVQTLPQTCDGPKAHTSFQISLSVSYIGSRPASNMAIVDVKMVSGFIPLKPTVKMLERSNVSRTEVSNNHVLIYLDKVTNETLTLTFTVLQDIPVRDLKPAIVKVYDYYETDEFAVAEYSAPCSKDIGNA
The test can be described thus: reducing SDS-PAGE and western blot with goat anti-α2-macroglobulin antibody; ~250 kDa band in culture supernatant with serum. In general terms: In western blotting, separated proteins are transferred to a membrane and probed.

Take “MDTS9 truncated protein (MDTS9Cys2) (enzyme)”: the binding result is given as “binds”.
